Measurements from patent US11390644B2, “Raman tag” (Purdue Research Foundation, priority 2014, dated 2022).

How the values were obtained:
[1] = test system: C. elegans; assay: PhDY-Chol uptake and storage in live C. elegans by SRS imaging; format: in vivo; conditions: fed 500 μM, 3 days
[2] = test system: M12 cells; assay: SRS/TPEF imaging of probe in NP-C disease cell model; format: cell-based, Chinese hamster; conditions: M12 cells (NPC1 deleted), filipin / LysoTracker staining
[3] = test system: CHO cells; assay: SRS imaging of probe incorporation and storage in live cells; format: cell-based, Chinese hamster; conditions: 50 μM, 16 h

For `C[C@H](CCC#CC#Cc1ccccc1)[C@H]1CC[C@H]2[C@@H]3CC=C4C[C@@H](O)CC[C@]4(C)[C@H]3CC[C@]12C` [PhDY-Chol, phenyl-diyne cholesterol], the “storage site in worms” value ([1]; N2 wildtype) was “stored in the intestinal cells”, the “storage compartment in intestinal cells” value ([1]; hjIs9 worms with GFP targeted to LROs) was “stored in the LROs” and the “uptake in ChUP-1 deleted worms” value ([1]; mutant C. elegans with ChUP-1 deletion) was “did not observe PhDY-Chol inside this strain”. For the same compound, the “intracellular localization in NP-C model cells” value [2] was “located in lysosomes”, the “intracellular localization in NP-C model cells” value ([2]; listed as PhDY-CHOL) was “found inside lysosomes” and the intracellular localization ([3]; live CHO cells) was “colocalized with LDs”. The “incorporation into the plasma membrane” value ([3]; trypsinized live CHO cells, on-resonance SRS image) was “detected in the on-resonance image”.
